In PMC10208982, “Structural basis of catalytic activation in human splicing” (Nature, 2023) one finds binding data, which are given here for two molecules.

What all share (test): cryo-EM structure; B^AQR spliceosome assembled on MINX-3×MS2 pre-mRNA in HeLa nuclear extract supplemented with recombinant IBC(K829A); MBP-MS2 affinity purification, glycerol gradient, cross-linked with 0.1% glutaraldehyde; core map about 2.9 Å
The target of test [1] is PRP8 (human (endogenous in HeLa)) (UniProt Q6P2Q9).
For test [2], the target named is T1, CWC22 (human (endogenous in HeLa)) (UniProt Q9HCG8).
T1 sequence: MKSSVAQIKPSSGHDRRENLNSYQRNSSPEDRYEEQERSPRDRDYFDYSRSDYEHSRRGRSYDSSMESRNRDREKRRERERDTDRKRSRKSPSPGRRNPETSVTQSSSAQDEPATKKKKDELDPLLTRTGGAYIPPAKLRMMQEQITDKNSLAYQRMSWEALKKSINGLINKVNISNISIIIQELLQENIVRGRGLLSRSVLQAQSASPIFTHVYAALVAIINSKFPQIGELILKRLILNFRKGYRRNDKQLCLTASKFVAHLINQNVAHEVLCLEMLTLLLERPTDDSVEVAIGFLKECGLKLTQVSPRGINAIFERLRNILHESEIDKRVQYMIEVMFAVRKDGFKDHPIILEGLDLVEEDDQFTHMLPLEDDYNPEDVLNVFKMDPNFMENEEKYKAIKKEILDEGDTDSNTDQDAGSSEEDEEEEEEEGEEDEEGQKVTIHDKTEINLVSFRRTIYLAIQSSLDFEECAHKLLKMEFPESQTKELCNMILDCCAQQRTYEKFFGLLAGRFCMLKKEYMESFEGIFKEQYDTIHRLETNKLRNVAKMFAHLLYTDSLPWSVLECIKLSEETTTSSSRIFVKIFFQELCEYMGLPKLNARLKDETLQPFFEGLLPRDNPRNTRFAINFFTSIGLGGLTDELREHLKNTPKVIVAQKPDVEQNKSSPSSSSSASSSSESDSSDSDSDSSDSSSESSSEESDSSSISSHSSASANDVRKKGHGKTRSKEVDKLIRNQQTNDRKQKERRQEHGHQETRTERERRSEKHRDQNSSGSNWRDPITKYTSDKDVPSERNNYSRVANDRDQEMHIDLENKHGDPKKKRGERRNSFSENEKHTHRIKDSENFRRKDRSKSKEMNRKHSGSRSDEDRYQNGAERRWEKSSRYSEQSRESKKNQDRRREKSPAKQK

Test [3] addresses T2, PRP2 (human (endogenous in HeLa)) (UniProt O60231).
T2 sequence: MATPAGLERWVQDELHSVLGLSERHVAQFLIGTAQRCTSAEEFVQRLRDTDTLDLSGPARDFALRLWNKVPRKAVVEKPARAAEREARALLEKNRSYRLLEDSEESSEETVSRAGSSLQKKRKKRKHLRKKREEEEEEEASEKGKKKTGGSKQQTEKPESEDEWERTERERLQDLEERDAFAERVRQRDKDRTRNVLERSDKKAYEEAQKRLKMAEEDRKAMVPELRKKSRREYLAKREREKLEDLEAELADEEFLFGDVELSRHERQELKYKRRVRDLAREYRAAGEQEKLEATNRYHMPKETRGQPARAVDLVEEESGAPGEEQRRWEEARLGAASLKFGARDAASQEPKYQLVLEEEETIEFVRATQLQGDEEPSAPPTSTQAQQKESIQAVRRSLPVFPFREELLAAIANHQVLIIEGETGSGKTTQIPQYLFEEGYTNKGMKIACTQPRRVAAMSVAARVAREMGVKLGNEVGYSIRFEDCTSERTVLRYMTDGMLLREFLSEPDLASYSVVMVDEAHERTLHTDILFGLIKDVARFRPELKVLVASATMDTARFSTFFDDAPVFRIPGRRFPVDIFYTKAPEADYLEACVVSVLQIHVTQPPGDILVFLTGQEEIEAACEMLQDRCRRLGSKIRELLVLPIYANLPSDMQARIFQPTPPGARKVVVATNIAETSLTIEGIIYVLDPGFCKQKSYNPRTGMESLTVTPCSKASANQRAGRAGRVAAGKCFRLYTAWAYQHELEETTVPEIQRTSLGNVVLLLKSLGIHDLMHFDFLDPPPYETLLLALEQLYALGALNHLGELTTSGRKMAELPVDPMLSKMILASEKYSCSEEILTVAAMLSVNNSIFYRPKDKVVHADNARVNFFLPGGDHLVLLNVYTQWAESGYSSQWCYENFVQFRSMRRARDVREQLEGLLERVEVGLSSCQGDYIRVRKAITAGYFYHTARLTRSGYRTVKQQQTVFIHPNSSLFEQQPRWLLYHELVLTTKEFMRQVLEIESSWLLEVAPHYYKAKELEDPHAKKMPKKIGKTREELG

For test [4], the target named is T3, PPIL4 (human (endogenous in HeLa)) (UniProt Q8WUA2).
T3 sequence: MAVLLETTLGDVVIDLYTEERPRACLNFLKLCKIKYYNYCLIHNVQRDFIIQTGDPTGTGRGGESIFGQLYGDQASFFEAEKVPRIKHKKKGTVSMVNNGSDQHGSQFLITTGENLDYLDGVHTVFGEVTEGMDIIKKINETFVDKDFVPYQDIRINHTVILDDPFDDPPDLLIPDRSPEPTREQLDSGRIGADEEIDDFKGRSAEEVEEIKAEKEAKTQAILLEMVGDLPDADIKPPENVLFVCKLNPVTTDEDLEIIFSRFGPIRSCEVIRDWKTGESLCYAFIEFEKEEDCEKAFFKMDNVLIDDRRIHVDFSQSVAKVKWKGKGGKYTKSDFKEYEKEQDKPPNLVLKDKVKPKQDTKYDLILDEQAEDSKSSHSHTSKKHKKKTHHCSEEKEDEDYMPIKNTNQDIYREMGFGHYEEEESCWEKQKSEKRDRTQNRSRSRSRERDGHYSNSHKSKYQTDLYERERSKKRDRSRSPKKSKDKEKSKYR

These are yes or no findings as the source states them, for the method shown. Some results given as binding are weak or reduced against the parent protein; the word gives no strength.

B1: BUD13 (protein, UniProt Q9BRD0 1-619)
chain: MAAAPPLSKAEYLKRYLSGADAGVDRGSESGRKRRKKRPKPGGAGGKGMRIVDDDVSWTAISTTKLEKEEEEDDGDLPVVAEFVDERPEEVKQMEAFRSSAKWKLLGGHNEDLPSNRHFRHDTPDSSPRRVRHGTPDPSPRKDRHDTPDPSPRRARHDTPDPSPLRGARHDSDTSPPRRIRHDSSDTSPPRRARHDSPDPSPPRRPQHNSSGASPRRVRHDSPDPSPPRRARHGSSDISSPRRVHNNSPDTSRRTLGSSDTQQLRRARHDSPDLAPNVTYSLPRTKSGKAPERASSKTSPHWKESGASHLSFPKNSKYEYDPDISPPRKKQAKSHFGDKKQLDSKGDCQKATDSDLSSPRHKQSPGHQDSDSDLSPPRNRPRHRSSDSDLSPPRRRQRTKSSDSDLSPPRRSQPPGKKAAHMYSGAKTGLVLTDIQREQQELKEQDQETMAFEAEFQYAETVFRDKSGRKRNLKLERLEQRRKAEKDSERDELYAQWGKGLAQSRQQQQNVEDAMKEMQKPLARYIDDEDLDRMLREQEREGDPMANFIKKNKAKENKNKKVRPRYSGPAPPPNRFNIWPGYRWDGVDRSNGFEQKRFARLASKKAVEELAYKWSVEDM
Take B1: the binding result in test [1], in test [2] and in test [3] was “binds” in each case.

B2: CWC15 (protein, UniProt Q9P013 1-229)
chain: MTTAARPTFEPARGGRGKGEGDLSQLSKQYSSRDLPSHTKIKYRQTTQDAPEEVRNRDFRRELEERERAAAREKNRDRPTREHTTSSSVSKKPRLDQIPAANLDADDPLTDEEDEDFEEESDDDDTAALLAELEKIKKERAEEQARKEQEQKAEEERIRMENILSGNPLLNLTGPSQPQANFKVKRRWDDDVVFKNCAKGVDDQKKDKRFVNDTLRSEFHKKFMEKYIK
Take B2: the binding entry in test [1] and in test [4] was “binds” throughout.
